PubChem BioAssay AID504784 – Drosophila RNAi Screening Center | 2011
The screen tested about 17,000 reagents; below is an unselected part of those that have a named target and a result. 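Each column is one replicate's B-score; the combined score over replicates was not deposited, so single values may mislead.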 Names joined by + are all predicted targets of the reagent.

Test: 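Search for regulators of lipid droplet storage in oleate-fed fly cells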 (primary screen)
Cell system: Drosophila Kc167 embryonic cells
Reagents: long dsRNA against Drosophila genes, about 250 ng dsRNA per well
Time to read-out: 4 days
Conditions: cells fed 400 µM oleic acid bound to BSA
Read-out: 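Microscope images give a droplet-to-nucleus area ratio, taken as log and converted to a screen-wide B-score; higher values mean greater lipid storage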
Reading the numbers: droplet/nuclear area B-score: higher = more stored lipid (overstorage)

target	amplicon	droplet/nuclear area B-score, replicate 1	droplet/nuclear area B-score, replicate 2	droplet/nuclear area B-score, replicate 3
CG9040	DRSC11053	0.919	1.49	
CG13601	DRSC14604	7.21	-0.0211	
Cib2	DRSC04535	-0.0962	0.823	
CG8093	DRSC07078	-0.604	-0.184	
Cyp6t2Psi	DRSC01840	1.87	0.0368	
CG18853	DRSC06795	-0.782	-0.178	
CG13658	DRSC14659	1	0.457	
Obp50b + Obp50c	DRSC21818	-1.34	0.238	
CG5276	DRSC15759	-0.844	-0.836	
CG7248	DRSC10788	0.304	0.454	
Tmep	DRSC08215	0.221	-0.473	
CG9630	DRSC16527	1.79	0.0132	
lncRNA:CR32657	DRSC19403	-0.922	-2.62	-1.09
CG7024	DRSC18414	-0.588	0.111	
Cpr62Ba	DRSC08403	-0.47	0.9	
CG7997	DRSC07052	2.09	-0.275	
CG6984	DRSC07013	3.55	-4.02	
TMEM216	DRSC16378	1.53	-0.103	
CHKov1	DRSC01566	-0.853	-1.1	
CHKov1	DRSC01696	1.64	-1.45	
CHKov1	DRSC14258	0.0687	0.847	
CHKov1	DRSC20937	0.159	0.853	
crok	DRSC02593	0.174	0.136	
crok	DRSC21349	1.46	0.0229	
CG7031	DRSC16178	-0.878	0.287	
CG7031	DRSC23028	-0.546	-0.0923	
Got1	DRSC07177	-0.531	0.00434	
RhoGEF2	DRSC07531	-0.655		
Ing5	DRSC03188	0.061	1.75	
AnxB10	DRSC20677	-0.265	-0.0458	
CG33462	DRSC22902	-3.32	-0.635	
so	DRSC07693	-0.0436	0.191	-1.63
so	DRSC23096	0.374	-0.146	
Acp53C14a	DRSC07224	0.456	0.00269	

An excerpt taken from the entries so far, for reference:
target	amplicon	droplet/nuclear area B-score, replicate 1	droplet/nuclear area B-score, replicate 2	droplet/nuclear area B-score, replicate 3
CG18853	DRSC06795	-0.782	-0.178	
CG13658	DRSC14659	1	0.457	
Obp50b + Obp50c	DRSC21818	-1.34	0.238	
CG5276	DRSC15759	-0.844	-0.836	
